The assay is described as follows: qHTS Assay for Lipid Storage Modulators in Drosophila S3 Cells.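 On cell number change: cells counted by Cell Tracker Red CMTPX staining in the red channel.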 The settings on record: BODIPY lipid droplet fluorescence, 18-24 h; for cell number change: measured here: cell count max response, cells fed with added oleic acid. The essentials: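 Laser-scanning cytometry quantifies lipid droplet accumulation (500–530 nm total intensity; droplet/cell object ratio) in oleic acid-fed (400 uM added) Drosophila S3 cells treated with a concentration series. 20 uM Triacsin C defined 100% inhibition.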
A general note: qHTS replaces the single test concentration by a dilution series.

Setting [1] is: measured here: cell number channel AC50, cells fed with added oleic acid.
Setting [2] is: measured here: lipid fluorescence (Fed channel) AC50, cells fed with added oleic acid.

SMILES strings stand for the structures. The list shows a part of the results. Further columns of the screen follow, without active or inactive calls. The list favours compounds with an active or inconclusive main result. Potencies come from curve fits of mixed quality, noted in brackets.

For the molecule `Cc1ccnc(NC(=O)C(C)N2C(=O)c3ccccc3S2(=O)=O)c1` (centres undefined), the cell number change was determined as 4.23%. Further, the AC50 under setting [1] was 0.82 µM [rising, single point]. Also, the half-maximal activity concentration (AC50) under setting [2] was 16.4 µM [rising, partial curve, poor fit].
In the case of `O=C(Nc1cc(N2CCCCC2)ncn1)c1ccccc1`, the cell number change turned out to be 30.8%. The AC50 under setting [1] was 0.116 µM [falling, full curve, poor fit]. In addition, the AC50 under setting [2] was 29.1 µM [rising, single point].
`CCOc1cc(CNCc2cc(OC)cc(OC)c2)ccc1OC`: the cell number change is -13.9%.
On the same count and under the same terms, under `COc1ccc(C2=NOC(Cn3nc(-c4ccccc4C)cc3C(=O)O)C2)cc1` (centres undefined) stands 9.25%.
`Cc1ccccc1-n1c(SCC(=O)N(C)C2CCS(=O)(=O)C2)nc2ccccc2c1=O` (centres undefined): the cell number change is -22.6%. For the same molecule, the AC50 under setting [2] was 29.1 µM [falling, single point].
In the case of `O=C(NCCO)C(=O)c1c(-c2ccccc2)cc2ccccn12`, the cell number change was -21.1%. For the same molecule, the AC50 under setting [1] is 0.00461 µM [falling, full curve, poor fit]. For the same molecule, the AC50 under setting [2] is 14.6 µM [falling, partial curve].
As for `Cc1ccccc1Cn1cc(NC(=O)CCCn2nc([N+](=O)[O-])cc2C)cn1`, the cell number change was -5.45%.
With `O=C(CN(Cc1cccs1)C(=O)CNS(=O)(=O)c1ccc(Cl)cc1)NCc1ccco1`, the cell number change worked out at 28.7%. The AC50 under setting [2] is 29.1 µM [falling, single point].
For the molecule `CCOC(=O)C1=C(C)NC(SCC(=O)O)=C(C#N)C1c1ccco1` (centres undefined), the cell number change is 9.81%.
With `O=S(=O)(NCC(c1cccnc1)N1CCc2ccccc2C1)c1ccccc1` (centres undefined), the cell number change amounted to 15.3%.
For the molecule `CC(C)Cn1c(SC(C)C(=O)NC2CC2)nnc1-c1ccccc1F` (centres undefined), the cell number change was -24.5%. For the same molecule, under setting [2], the AC50 is 0.651 µM [falling, full curve, poor fit].
`Cc1ccnc(NS(=O)(=O)c2ccc(NC(=O)C3CCCO3)cc2)n1` (centres undefined): the cell number change was 3.24%. Also, the AC50 under setting [1] was 0.0517 µM [rising, single point].
As for `CCOC(=O)c1nnc2cc(-c3ccccc3)nn2c1C`, the cell number change is 10.3%. Further, the AC50 under setting [2] is 6.51 µM [falling, single point].
For the molecule `COc1ccc(Cl)cc1NC(=O)C(=O)NCc1ccncc1`, the AC50 under setting [2] was 29.1 µM [rising, single point].
As for `O=C(O)c1ccc(Cl)c(S(=O)(=O)N(Cc2ccccc2)c2ccc(Cl)cc2)c1`, the cell number change is -26.1%.
`O=C(c1ccc2c(c1)OCCO2)C1CCN(S(=O)(=O)c2ccccc2F)CC1`: the cell number change turned out to be 1.15%. For the same molecule, the AC50 under setting [2] is 29.1 µM [falling, single point].
For `NS(=O)(=O)c1cc(C(=O)NCCc2ccccn2)ccc1Cl`, the cell number change was -9.24%. The AC50 under setting [2] was 4.61 µM [falling, single point].
As to `Cc1cccc(C(=O)N/N=C/C(C)Cc2ccc3c(c2)OCO3)c1` (centres undefined), the cell number change turned out to be 7.65%. Under setting [2], the AC50 was 0.517 µM [rising, full curve, poor fit].
Regarding `Oc1ccccc1C(=S)N1CCN(c2cccc(Cl)c2)CC1`, the cell number change is -40.3%. Further, the AC50 under setting [1] was 14.6 µM [falling, single point].
Regarding `O=c1[nH]c2ccc(S(=O)(=O)N3CCN(C4CCCCC4)CC3)cc2[nH]c1=O`, the AC50 under setting [1] is 3.66 µM [falling, single point].
Take `CCc1nc(NCCO)c(C#N)c2c1CSC(C)(C)C2`: the cell number change is 26.7%.
Consider `Nc1n[nH]c(N)c1N=Nc1ccc(Cl)cc1Cl`, for which the cell number change was 34.3%. Besides, under setting [1], the AC50 is 5.8 µM [rising, partial curve].
Turning to `OCCC1CN(Cc2ccon2)CCN1Cc1ccccc1` (centres undefined), the cell number change was determined as 19.7%. Also, the AC50 under setting [2] was 11.6 µM [rising, partial curve].
Regarding `COc1ccccc1OCC(=O)Nc1ccc(CSc2ccccc2)cc1C`, the cell number change turned out to be 85.8%. Besides, the AC50 under setting [1] is 7.31 µM [rising, partial curve]. The concentration at half-maximal activity (AC50) under setting [2] is 14.6 µM [rising, partial curve].
Take `CCOC(=O)NC(=O)CSc1nc(C)cc(C)c1C#N`: the cell number change was determined as 6.64%. Moreover, under setting [2], the AC50 was 1.84 µM [rising, full curve, poor fit].
On to `O=C(Nc1ccccc1Cl)/C(Cl)=C(\Cl)S(=O)c1ccccc1` (centres undefined), for which, under setting [2], the AC50 is 4.11 µM [falling, partial curve, poor fit].
In the case of `NC(=O)c1c(NC(=O)c2ccccc2Cl)sc2c1CCC2`, the cell number change is -28.5%. Also, under setting [2], the AC50 is 6.51 µM [rising, single point].
Consider `NC(=O)N/N=C/c1cc(Br)ccc1OC(=O)c1ccccc1`, for which the cell number change stood at 3.29%. Besides, the AC50 under setting [2] was 29.1 µM [rising, single point].
`COc1ccc(OC)c(CCNC(=O)c2sc3nc4n(c(=O)c3c2C)CCC4)c1`: the cell number change was -54.6%. The AC50 under setting [1] was 10.3 µM [falling, partial curve, poor fit]. Besides, the AC50 under setting [2] was 1.64 µM [falling, partial curve].
Regarding `COc1ccc(OCC(=O)N/N=C(\C)CC(=O)Nc2ccc(NC(C)=O)cc2)cc1`, the cell number change was -13.9%. Also, under setting [2], the AC50 is 29.1 µM [falling, single point].
Regarding `COc1ccccc1C(=O)NCCc1nc2ccccc2n1C`, the cell number change amounted to 3.47%. Besides, under setting [2], the AC50 is 0.092 µM [falling, full curve, poor fit].
Take `COc1cc(C(=O)NCC2(c3ccccc3)CCCC2)ccc1OC(C)C`: the cell number change is -8.51%.
On to `COc1ccccc1OCCC(=O)OCC(=O)NC(=O)NC(C)(C)C`, for which the cell number change is -0.788%. The AC50 under setting [2] is 1.03 µM [rising, full curve, poor fit].
As for `Cc1ccc(S(=O)(=O)N2CCCC(CCC(=O)NCc3ccccc3F)C2)s1` (centres undefined), the cell number change is -8.12%. The AC50 under setting [2] is 16.4 µM [falling, single point].
On to `NC(=O)CC(NC(=O)Cc1ccc(Cl)cc1)c1ccc(N2CCN(c3ccccn3)CC2)c([N+](=O)[O-])c1` (centres undefined), for which the cell number change worked out at 8.68%. The AC50 under setting [2] was 0.461 µM [falling, single point].
With `Cc1ccc(CNC(=O)CSc2c3c(nc4cc(Cl)ccc24)CCCC3)o1`, the half-maximal activity concentration (AC50) under setting [1] was 0.461 µM [rising, full curve].
As to `COc1ccc(NS(=O)(=O)c2c(C(=O)N3CCCCCC3)c(C)n(C)c2C)cc1`, the cell number change was -18.4%. For the same molecule, the AC50 under setting [2] was 0.231 µM [falling, full curve, poor fit].
For the molecule `CCC(NC(=O)c1ccccc1NC(=O)C(C)(C)C)C(=O)N1CCCC1` (centres undefined), the cell number change was 19.1%.
`CCn1nc(C)c(/C=N/NC(=O)c2ccc3c(c2)c(C)c(C)n3Cc2ccccc2)c1C`: the cell number change is 78.2%. Moreover, under setting [1], the AC50 is 10.3 µM [rising, partial curve, poor fit]. In addition, the concentration at half-maximal activity (AC50) under setting [2] was 0.116 µM [rising, full curve, poor fit].
`Cc1ccc(OC(=O)Nc2ccccc2)cc1`: the cell number change is -2.22%.
In the case of `COc1cc(C(=O)NNC(=S)Nc2ccc(S(N)(=O)=O)cc2)cc(OC)c1OC`, the cell number change worked out at 18.5%. Besides, the AC50 under setting [2] is 2.91 µM [rising, partial curve, poor fit].

As a reminder, the AC50 is the concentration giving half of the maximal activity seen.

The values above are taken from PubChem BioAssay AID2685 (National Center for Advancing Translational Sciences (NCATS), 2010).
